This test concerns the target T1, SLC41A1 (human).
T1 chain: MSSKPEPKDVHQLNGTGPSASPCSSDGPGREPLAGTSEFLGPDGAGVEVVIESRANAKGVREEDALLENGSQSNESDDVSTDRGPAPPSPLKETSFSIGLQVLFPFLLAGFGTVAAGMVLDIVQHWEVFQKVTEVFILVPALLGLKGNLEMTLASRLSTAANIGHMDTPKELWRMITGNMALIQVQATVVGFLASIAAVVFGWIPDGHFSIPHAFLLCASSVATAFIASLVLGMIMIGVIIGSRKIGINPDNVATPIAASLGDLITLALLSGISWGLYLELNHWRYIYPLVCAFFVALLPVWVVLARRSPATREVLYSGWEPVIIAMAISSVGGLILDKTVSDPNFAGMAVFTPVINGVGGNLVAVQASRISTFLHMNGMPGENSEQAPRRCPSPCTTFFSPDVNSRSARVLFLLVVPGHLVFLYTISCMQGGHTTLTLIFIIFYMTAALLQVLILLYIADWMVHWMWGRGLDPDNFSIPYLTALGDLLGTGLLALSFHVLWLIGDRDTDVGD
Description: split-ubiquitin method screen (DUALmembrane SU-YTH) for SLC41A1 complex-forming partners.

B1: Keratinocyte-associated protein 2 (other)
chain: MVVGTGTSLALSSLLSLLLFAGMQMYSRQLASTEWLTIQGGLLGSGLFVFSLTAFNNLENLVFGKGFQAKIFPEILLCLLLALFASGLIHRVCVTTCFIFSMVGLYYINKISSTLYQAAAPVLTPAKVTGKSKKRN
Take B1: the occurrence came to 2 clones.

B2: Putative uncharacterized protein Cxorf62 (other)
chain: MPKSLEIYKGSCNWEESGLLGSCFSQGLALLPRVEWSGAILAHCIVDLPSSSDPPTSASHFSGLQAHTTTARWSLTLLPRLECSGTISAHYNLRLLGSSNSPVSASQVAETTEACHHTRLIFVFSVETGFHHVGQAGLKLLTSGDPPASASQSAGITGVSHSARPKSCFLQLLG
The molecule B2 returned an occurrence of 2 clones.

The values above are taken from US20130174289A1, “Na+/Mg2+ Exchanger” (FBN - Leibnitz-Institut fur Nutztierbiologie, published 2013).
